Experimental data from patent US20090163577A1, “METHODS AND COMPOSITIONS FOR ANTAGONIZING ANTI-APOPTOTIC Bcl-2-FAMILY PROTEINS” (Burnham Institute for Medical Research, priority 2007, published 2009).
Some of these results come from one statement about several compounds together. At least one structure is not confirmed: it was looked up by name or label, or the drawing left a doubt.

Assays:
[1] = tested on: human anti-apoptotic Bcl-2 family proteins; settings: BH3 peptide displacement; cited from earlier work
Bfl-1 = target: T1, Bfl-1 (Homo sapiens, UniProt Q16548); assay: FPA competitive FITC-Bid BH3 peptide displacement, Bfl-1 (also HTS)
T1 sequence (Q16548 1-155 limits assumed): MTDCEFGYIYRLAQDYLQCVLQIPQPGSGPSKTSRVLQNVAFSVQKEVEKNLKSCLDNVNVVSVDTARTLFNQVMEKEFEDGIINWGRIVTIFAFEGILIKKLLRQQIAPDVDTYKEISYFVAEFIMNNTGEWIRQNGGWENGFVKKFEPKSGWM

Row | SMILES | activity against human anti-apoptotic Bcl-2 family proteins [1] [µM] | potency of BH3 peptide displacement from Bfl-1 relative to GA (fold less) (Bfl-1)
1 | Cc1cc2c(C(C)C)c(O)c(O)c(C=O)c2c(O)c1-c1c(C)cc2c(C(C)C)c(O)c(O)c(C=O)c2c1O [gossypol] | < 1 | 
2 | CC(=O)Oc1c2c(c(CC=C(C)C)c3c1C(=O)C1=C[C@@H]4CC5C(C)(C)OC(C/C=C(\C)C(=O)O)(C4=O)[C@@]15O3)OC(C)(CCC=C(C)C)C=C2 (stereo partly drawn) [acetyl-iso-GA] |  | 3-6 fold
3 | O=C(O[C@@H]1Cc2c(O)cc(O)cc2O[C@@H]1c1cc(O)c(O)c(O)c1)c1cc(O)c(O)c(O)c1 [epigallocatechin gallate] | < 1 | 
